Measured values published in doi:10.1101/2020.07.06.189977 (bioRxiv, 2020).
Results are given in words; binding and its absence hold for the method and conditions named. Some binding calls cover weakened binding; strength is not graded here.

The chains behind the UniProt entries cited, without tags or fusion partners. Residues count along the entry.
UniProt Q9Y618, residues 649-671: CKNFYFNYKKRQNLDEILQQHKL
UniProt P03372: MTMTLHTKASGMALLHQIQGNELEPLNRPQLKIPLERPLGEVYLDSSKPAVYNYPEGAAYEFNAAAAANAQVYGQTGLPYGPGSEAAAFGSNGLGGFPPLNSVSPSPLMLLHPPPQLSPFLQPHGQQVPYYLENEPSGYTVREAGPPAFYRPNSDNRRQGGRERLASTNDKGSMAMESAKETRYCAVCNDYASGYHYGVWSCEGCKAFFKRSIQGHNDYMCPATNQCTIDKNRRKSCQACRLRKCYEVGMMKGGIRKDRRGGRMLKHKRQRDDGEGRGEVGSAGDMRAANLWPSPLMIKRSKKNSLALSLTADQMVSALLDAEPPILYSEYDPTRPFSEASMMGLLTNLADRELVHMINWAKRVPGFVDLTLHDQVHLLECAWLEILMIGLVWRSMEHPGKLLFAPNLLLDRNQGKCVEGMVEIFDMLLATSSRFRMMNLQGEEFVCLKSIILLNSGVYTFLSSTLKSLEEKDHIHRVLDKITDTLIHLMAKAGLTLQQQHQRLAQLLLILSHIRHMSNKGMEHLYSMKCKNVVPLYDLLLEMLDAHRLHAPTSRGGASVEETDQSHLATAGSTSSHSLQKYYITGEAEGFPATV

Legend:
Assay in all cases: peptide or protein array
[1] = target: T1, PRDM2 (amino acids 948–970) peptide (UniProt Q13029)
T1 sequence (peptide): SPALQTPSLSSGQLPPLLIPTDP

[2] = target: T2, NRIP1 (amino acids 805–831) peptide (UniProt P48552)
T2 sequence (peptide): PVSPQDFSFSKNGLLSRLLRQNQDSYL

[3] = target: NCOR2 peptide (amino acids 649-671) (UniProt Q9Y618)

Measured: binding

full length HA-tagged WT ERa (from UniProt P03372 1-595) (receptor)
binds: all assays above
